From PubChem BioAssay (EPA / NIEHS)
“And” between values parts separate entries of the source, which are not always exact repeats. Equal entries are not always repeated. The inconclusive results got no clear call from the source; some entries with a clear call stand among them for comparison. For part of these data: Potencies of inconclusive entries are doubtful fits and often do not repeat. Where a structure was tested more than once in an assay, its records may differ in their call. The source made the active and inactive calls. Rule for the calls: active = hit-call score of the fitted dose curve at least 0.9, where 1 is the maximum; inconclusive = response in the unintended direction; inactive = score below 0.9.

By UniProt entry, the sequences of proteins in these tests, tags left out. Where a name states a change or a piece, a line headed by the entry shows the natural chain unless it says otherwise.
UniProt Q92731, whole entry, looked up: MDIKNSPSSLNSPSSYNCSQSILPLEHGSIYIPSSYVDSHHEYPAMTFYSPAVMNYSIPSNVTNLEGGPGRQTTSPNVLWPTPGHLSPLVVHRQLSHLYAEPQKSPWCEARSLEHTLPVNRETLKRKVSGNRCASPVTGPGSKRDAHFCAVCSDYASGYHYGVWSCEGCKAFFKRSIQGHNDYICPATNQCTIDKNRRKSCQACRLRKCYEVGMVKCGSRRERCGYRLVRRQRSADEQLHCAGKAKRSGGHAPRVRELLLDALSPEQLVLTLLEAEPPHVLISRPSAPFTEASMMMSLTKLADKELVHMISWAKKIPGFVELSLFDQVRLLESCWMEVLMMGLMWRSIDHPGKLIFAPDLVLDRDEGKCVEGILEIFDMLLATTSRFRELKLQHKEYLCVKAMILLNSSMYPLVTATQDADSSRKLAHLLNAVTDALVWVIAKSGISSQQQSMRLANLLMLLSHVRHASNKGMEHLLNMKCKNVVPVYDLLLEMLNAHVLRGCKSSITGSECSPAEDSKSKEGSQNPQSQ
UniProt P10276, whole entry, looked up: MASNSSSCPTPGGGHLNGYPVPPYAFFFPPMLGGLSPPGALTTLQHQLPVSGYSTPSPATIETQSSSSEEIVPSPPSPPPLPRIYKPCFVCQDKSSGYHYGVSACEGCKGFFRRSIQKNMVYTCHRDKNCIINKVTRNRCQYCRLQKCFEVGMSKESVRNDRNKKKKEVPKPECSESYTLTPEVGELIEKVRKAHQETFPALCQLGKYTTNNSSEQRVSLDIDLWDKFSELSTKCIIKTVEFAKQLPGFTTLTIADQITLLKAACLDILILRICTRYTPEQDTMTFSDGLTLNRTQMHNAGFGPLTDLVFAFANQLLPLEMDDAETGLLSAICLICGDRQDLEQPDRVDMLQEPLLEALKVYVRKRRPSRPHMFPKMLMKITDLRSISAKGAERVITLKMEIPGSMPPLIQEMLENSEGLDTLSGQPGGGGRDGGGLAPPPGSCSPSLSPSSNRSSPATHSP
UniProt P06401: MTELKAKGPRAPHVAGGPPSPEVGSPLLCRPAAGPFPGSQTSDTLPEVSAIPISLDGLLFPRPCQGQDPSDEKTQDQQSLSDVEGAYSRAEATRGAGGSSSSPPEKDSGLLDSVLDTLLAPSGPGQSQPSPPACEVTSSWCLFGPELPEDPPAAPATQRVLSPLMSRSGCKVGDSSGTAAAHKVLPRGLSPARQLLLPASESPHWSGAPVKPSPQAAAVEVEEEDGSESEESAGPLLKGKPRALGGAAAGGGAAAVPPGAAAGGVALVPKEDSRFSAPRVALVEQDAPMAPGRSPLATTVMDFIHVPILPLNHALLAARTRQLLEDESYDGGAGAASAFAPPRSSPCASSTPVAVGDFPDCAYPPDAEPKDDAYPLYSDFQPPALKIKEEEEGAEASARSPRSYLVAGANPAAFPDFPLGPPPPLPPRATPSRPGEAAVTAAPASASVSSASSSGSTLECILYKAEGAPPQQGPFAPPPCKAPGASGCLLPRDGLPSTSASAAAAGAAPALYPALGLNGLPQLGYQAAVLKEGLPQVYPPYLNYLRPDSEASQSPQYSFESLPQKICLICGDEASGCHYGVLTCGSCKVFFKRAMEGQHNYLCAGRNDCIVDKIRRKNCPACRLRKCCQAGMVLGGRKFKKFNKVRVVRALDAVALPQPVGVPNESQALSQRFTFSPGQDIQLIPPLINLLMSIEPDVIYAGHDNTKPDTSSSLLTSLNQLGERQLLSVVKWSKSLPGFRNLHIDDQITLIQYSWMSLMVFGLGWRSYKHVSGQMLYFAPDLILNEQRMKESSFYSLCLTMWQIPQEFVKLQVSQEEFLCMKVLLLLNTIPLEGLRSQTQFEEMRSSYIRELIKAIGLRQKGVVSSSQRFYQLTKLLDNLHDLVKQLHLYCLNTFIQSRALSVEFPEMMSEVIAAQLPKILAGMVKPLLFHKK
UniProt P10827: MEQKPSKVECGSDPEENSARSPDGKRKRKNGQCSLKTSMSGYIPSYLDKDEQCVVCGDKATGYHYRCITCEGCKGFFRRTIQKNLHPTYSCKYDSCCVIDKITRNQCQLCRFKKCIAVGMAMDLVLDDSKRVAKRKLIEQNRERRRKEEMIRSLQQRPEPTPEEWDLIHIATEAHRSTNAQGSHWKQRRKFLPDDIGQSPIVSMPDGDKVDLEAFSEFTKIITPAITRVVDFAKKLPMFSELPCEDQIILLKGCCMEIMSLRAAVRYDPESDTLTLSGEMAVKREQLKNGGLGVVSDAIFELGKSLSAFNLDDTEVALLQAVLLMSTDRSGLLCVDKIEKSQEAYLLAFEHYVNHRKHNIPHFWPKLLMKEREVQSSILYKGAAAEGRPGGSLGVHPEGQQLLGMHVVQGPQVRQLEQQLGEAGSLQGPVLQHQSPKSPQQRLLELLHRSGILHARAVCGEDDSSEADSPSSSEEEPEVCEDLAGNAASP
UniProt P37231: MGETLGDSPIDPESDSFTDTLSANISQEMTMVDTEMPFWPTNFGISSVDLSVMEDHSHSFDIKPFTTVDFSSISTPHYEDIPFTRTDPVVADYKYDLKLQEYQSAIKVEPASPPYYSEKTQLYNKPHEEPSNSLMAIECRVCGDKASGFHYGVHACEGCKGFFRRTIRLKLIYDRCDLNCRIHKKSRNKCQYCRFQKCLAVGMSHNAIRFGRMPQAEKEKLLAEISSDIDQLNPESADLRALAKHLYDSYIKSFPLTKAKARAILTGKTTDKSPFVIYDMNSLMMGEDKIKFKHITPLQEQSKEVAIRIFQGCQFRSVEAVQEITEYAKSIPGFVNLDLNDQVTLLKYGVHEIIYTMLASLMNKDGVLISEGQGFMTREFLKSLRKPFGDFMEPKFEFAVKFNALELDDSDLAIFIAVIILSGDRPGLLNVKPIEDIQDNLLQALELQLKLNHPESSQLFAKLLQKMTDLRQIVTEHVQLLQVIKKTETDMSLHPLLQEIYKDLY
UniProt P15207: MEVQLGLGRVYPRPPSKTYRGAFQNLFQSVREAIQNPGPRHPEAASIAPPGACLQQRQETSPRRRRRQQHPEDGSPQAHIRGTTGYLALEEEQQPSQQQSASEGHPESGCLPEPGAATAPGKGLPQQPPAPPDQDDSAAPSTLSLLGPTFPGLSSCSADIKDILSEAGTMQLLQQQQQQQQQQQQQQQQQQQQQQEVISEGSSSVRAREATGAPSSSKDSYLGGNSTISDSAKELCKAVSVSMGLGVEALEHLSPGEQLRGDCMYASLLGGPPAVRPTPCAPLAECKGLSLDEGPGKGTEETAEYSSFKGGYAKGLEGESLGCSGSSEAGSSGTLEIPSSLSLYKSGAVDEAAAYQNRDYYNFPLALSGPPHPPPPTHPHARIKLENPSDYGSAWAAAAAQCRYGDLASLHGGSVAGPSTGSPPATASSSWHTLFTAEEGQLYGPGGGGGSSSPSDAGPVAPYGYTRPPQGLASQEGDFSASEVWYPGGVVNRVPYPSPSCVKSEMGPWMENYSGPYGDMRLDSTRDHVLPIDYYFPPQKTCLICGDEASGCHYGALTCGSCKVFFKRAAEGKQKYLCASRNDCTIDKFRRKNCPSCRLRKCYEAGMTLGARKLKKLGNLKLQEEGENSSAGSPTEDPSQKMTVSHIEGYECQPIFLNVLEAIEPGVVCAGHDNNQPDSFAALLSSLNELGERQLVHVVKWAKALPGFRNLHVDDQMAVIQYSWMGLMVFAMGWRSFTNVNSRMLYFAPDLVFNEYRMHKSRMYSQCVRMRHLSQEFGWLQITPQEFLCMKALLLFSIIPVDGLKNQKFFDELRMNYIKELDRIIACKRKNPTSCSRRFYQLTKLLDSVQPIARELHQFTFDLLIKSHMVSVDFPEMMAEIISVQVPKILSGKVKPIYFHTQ
UniProt P31645, whole entry, looked up: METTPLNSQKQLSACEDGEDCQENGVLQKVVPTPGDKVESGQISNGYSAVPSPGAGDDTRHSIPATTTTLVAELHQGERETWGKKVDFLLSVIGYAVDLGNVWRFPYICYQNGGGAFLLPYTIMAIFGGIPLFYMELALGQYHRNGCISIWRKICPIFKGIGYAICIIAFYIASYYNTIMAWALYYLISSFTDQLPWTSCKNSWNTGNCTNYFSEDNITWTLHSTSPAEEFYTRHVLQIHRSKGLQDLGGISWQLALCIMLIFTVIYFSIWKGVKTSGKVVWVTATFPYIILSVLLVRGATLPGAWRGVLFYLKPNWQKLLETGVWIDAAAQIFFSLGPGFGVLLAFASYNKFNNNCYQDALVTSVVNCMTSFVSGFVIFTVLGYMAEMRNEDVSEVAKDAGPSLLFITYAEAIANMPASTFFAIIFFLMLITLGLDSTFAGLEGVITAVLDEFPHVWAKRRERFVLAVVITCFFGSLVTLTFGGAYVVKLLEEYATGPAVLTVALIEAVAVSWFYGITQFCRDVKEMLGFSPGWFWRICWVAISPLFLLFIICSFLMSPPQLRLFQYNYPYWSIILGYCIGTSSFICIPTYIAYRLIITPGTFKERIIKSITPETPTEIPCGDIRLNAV
UniProt P23975, whole entry, looked up: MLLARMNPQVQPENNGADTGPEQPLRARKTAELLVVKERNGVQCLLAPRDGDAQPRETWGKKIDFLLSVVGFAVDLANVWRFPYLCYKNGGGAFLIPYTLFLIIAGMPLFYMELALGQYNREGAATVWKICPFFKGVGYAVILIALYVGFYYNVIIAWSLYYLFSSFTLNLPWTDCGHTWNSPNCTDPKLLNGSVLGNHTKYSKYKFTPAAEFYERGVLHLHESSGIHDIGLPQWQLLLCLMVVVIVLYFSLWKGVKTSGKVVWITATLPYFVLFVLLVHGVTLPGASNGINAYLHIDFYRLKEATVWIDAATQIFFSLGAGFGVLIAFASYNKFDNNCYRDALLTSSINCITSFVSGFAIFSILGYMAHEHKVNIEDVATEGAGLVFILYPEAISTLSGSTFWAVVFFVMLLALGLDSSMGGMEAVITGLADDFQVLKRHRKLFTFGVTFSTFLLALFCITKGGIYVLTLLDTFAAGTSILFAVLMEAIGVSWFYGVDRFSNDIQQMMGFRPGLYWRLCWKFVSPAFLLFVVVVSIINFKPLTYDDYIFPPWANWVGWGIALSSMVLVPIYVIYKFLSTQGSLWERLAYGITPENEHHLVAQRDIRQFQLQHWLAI
UniProt P04150: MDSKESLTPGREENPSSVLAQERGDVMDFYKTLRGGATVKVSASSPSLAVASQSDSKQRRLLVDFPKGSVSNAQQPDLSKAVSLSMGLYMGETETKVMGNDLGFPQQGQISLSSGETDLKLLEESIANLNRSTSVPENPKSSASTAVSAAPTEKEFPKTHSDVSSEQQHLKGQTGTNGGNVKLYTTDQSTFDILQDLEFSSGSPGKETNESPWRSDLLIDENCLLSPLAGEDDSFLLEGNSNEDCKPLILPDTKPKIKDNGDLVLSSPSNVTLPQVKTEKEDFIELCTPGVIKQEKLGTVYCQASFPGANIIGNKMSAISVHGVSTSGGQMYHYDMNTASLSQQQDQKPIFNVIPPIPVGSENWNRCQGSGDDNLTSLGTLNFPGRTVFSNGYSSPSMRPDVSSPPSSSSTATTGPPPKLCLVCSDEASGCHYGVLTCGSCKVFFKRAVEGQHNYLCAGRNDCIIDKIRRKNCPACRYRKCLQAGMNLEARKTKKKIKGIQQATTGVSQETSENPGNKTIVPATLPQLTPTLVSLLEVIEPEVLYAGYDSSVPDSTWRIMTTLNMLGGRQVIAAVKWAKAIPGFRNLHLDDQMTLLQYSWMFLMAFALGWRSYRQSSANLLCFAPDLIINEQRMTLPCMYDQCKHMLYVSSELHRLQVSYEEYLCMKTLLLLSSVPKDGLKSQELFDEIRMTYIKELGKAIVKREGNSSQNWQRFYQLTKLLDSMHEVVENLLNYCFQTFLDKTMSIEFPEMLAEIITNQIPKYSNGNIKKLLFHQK
UniProt Q99808: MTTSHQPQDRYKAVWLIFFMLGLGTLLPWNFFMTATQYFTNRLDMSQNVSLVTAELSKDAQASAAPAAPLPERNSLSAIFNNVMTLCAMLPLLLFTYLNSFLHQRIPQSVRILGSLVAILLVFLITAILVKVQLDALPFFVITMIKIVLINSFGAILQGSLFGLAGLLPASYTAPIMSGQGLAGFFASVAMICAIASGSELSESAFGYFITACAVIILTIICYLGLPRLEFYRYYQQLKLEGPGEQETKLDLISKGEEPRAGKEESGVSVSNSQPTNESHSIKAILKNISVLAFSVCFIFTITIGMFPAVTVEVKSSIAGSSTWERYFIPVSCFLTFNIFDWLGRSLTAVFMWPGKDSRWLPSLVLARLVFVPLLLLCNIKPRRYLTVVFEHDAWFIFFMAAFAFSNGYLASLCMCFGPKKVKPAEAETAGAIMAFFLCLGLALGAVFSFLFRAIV

Experiments:
[1] = biological target: Estrogen receptor beta (Homo sapiens) (UniProt Q92731); assay: OT_ER_ERbERb_0480: Odyssey Thera (OT) 8-hour HEK293T Protein-Complementation Assay for Estrogen Receptor-beta/-beta Homodimer (AID 2283357);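 note: active means signal gain over DMSO baseline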
Summary of the method: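 Fluorescence intensity, nuclear for agonists and nuclear plus cytoplasmic for antagonists, was quantified by laser scanning cytometry versus vehicle after 8 h treatment. The cells were HEK293T stably carrying ER beta LBD fragment-complementation partners.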

[2] = biological target: Retinoic acid receptor alpha (Homo sapiens) (UniProt P10276); assay: NVS_NR_hRAR_Antagonist: NovaScreen (NVS) Nuclear Receptor Binding Assay for human Retinoic Acid Alpha Receptor Antagonism (RAR) (AID 2283358)
Summary of the method: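 Cell-free TR-FRET binding assay with extracted human RARalpha in antagonist mode, read 2 h after dosing. Loss of signal was fitted relative to DMSO; the primary screen used 25 uM in duplicate, with concentration series on follow-up.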

[3] = biological target: PGR (gene 5241) (UniProt P06401); assay: NVS_NR_hPR: NovaScreen (NVS) Nuclear Receptor Binding Assay for human Progestron Receptor (PR) (AID 2283360);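 note: active means loss of bound radioligand signal versus DMSO baseline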
Summary of the method: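 Competitive displacement of a labelled radioligand from T47D-derived receptor protein is measured in a cell-free format. Initial testing uses 25 uM in duplicate, with positive and negative controls on every plate.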

[4] = biological target: human Thyroid Receptor Alpha (TRa), THRA (gene 7067) (UniProt P10827); assay: NVS_NR_hTRa_Antagonist: NovaScreen (NVS) Nuclear Receptor Binding Assay for human Thyroid Receptor Alpha Antagonism (TRa) (AID 2283362);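 note: activity is loss of signal relative to DMSO baseline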
Summary of the method: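 Extracted protein, cell-free; 1 h incubation after dosing; AlphaLISA chemiluminescence binding readout. DMSO = baseline/neg ctrl; signal loss = activity. Primary: duplicate, 25 uM; secondary: conc. series on actives.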

[5] = biological target: Retinoic acid receptor alpha (Homo sapiens) (UniProt P10276); assay: NVS_NR_hRARa_Agonist: NovaScreen (NVS) Nuclear Receptor Binding Assay for human Retinoic Acid Alpha Receptor Agonism (RAR) (AID 2283361)
Summary of the method: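 Cell-free TR-FRET binding readout with extracted receptor protein, read 2 hours after dosing; gain-of-signal fitted relative to DMSO. Screened in duplicate at 25 uM, actives then run in concentration-response.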

[6] = biological target: Nuclear receptor subfamily 1 group I member 2 (Homo sapiens) (UniProt O75469); assay: NVS_NR_hPXR: NovaScreen (NVS) Nuclear Receptor Binding Assay for human Pregnane X Receptor (PXR) (AID 2283365);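 note: a drop in FRET signal versus DMSO baseline means the compound binds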
Summary of the method: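 Human PXR protein, cell-free; compound added, incubated 2 h, TR-FRET read. Signal decrease vs DMSO = binding. Screened 25 uM duplicate, actives re-run as dilution series.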

[7] = biological target: Peroxisome proliferator-activated receptor gamma (Homo sapiens) (UniProt P37231); assay: NVS_NR_hPPARg: NovaScreen (NVS) Nuclear Receptor Binding Assay for human Peroxisome Proliferator-activated Receptor gamma (PPARg) (AID 2283370)
Summary of the method: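 Chemicals were tested first in duplicate at 25 uM, then in concentration series if active. Binding to cell-free PPARg protein was measured by fluorescence polarization after 2 h, with loss of signal scored against DMSO.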

[8] = biological target: human Peroxisome Proliferator-activated Receptor alpha (PPARa), PPARA (gene 5465) (UniProt Q07869); assay: NVS_NR_hPPARa: NovaScreen (NVS) Nuclear Receptor Binding Assay for human Peroxisome Proliferator-activated Receptor alpha (PPARa) (AID 2283359);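 note: activity means loss of TR-FRET signal versus DMSO baseline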
Summary of the method: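 Cell-free TR-FRET binding assay with extracted PPARα protein, read 1 h after dosing. Primary screen in duplicate at 25 uM, with actives retested in concentration series. Loss of signal versus DMSO.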

[9] = biological target: rat Androgen Receptor (AR), Ar (gene 24208) (UniProt P15207); assay: NVS_NR_rAR: NovaScreen (NVS) Nuclear Receptor Binding Assay for rat Androgen Receptor (AR) (AID 2283366)
Summary of the method: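 Cell-free radioligand binding on extracts of prostate from testosterone-pretreated rats, read by filter-based scintillation counting 18 h after dosing. Loss of bound signal fitted positively versus DMSO; primary screen in duplicate at 25 uM, actives followed up in concentration series.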

[10] = biological target: human Serotonin Transporter (SERT), SLC6A4 (gene 6532) (UniProt P31645); assay: NVS_TR_hSERT: NovaScreen (NVS) Transporter Assay for human Serotonin Transporter (SERT) (AID 2283372)
Summary of the method: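 Radioligand binding to native SERT in human platelet membranes, read by filter-based scintillation counting 1 h after dosing. Primary screen in duplicate at 25 uM; actives followed up in concentration series; loss of signal versus DMSO baseline.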

[11] = biological target: human Norepinephrine Transporter (NET), SLC6A2 (gene 6530) (UniProt P23975); assay: NVS_TR_hNET: NovaScreen (NVS) Transporter Assay for human Norepinephrine Transporter (NET) (AID 2283377);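 for AC50: displacement of radioligand from human NET seen as loss of scintillation signal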
Summary of the method: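 Cell-free radioligand binding using CHO-derived membrane protein expressing human NET, read by filter scintillation counting 1 h after dosing; loss of signal vs DMSO. Initial duplicate screen at 25 uM, actives retested in concentration series.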

[12] = biological target: Glucocorticoid receptor (Homo sapiens) (UniProt P04150); assay: NVS_NR_hGR: NovaScreen (NVS) Nuclear Receptor Binding Assay for human Glucocorticoid Receptor (GR) (AID 2283363);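 note: activity is loss of specific radioligand binding signal relative to DMSO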
Summary of the method: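 Cell-free radioligand displacement assay on extracted human GR, read 16 h after dosing by filter-based scintillation counting. Screened in duplicate at 25 uM, then concentration series for actives; loss of signal versus DMSO baseline.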

[13] = system: guinea pig Dopamine Transporter (DAT), gene 100714898; assay: NVS_TR_gDAT: NovaScreen (NVS) Transporter Assay for guinea pig Dopamine Transporter (DAT) (AID 2283369);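 note: active compounds lower bound radioligand signal relative to DMSO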
Summary of the method: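 Scintillation counts of filter-retained radioligand report binding to guinea pig striatal membranes after 2 h. Activity scored as signal loss relative to DMSO, first at 25 uM in duplicate, then in concentration series to 50 uM.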

[14] = biological target: human Adenosine Transporter (Adot), SLC29A1 (gene 2030) (UniProt Q99808); assay: NVS_TR_hAdoT: NovaScreen (NVS) Transporter Assay for human Adenosine Transporter (Adot) (AID 2283368)
Summary of the method: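 U937-derived membranes, cell-free radioligand binding, filter scintillation 1 h after dosing. 25 uM duplicate screen; hits (e.g. 30% inhibition) run in concentration-response up to 50 uM; loss of signal versus DMSO.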

[15] = system: rat Norepinephrine Transporter (NET), gene 83511; assay: NVS_TR_rNET: NovaScreen (NVS) Transporter Assay for rat Norepinephrine Transporter (NET) (AID 2283373)
Summary of the method: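 Rat forebrain membranes; radioligand binding measured by filter-based scintillation counting 1 hour after dosing. Loss of specific binding versus DMSO baseline scored; primary screen in duplicate at 25 uM, actives followed up in concentration series.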

For `OCCOc1ccccc1`, the outcome [1] was “inactive”.

In the case of `O=C1C2CC=CCC2C(=O)N1SC(Cl)(Cl)Cl` (stereo not given), the AC50 [1] is reported as inconclusive: 49.2 µM, the outcome [2] is reported as “inactive” and the AC50 [3] is reported as inconclusive: 25 µM. For the same compound, the AC50 [4] was inconclusive: 0.0997 µM.

With `O=[N+]([O-])c1ccccc1O` the AC50 [1] was inconclusive: 50 µM.

`Cc1ccccc1[N+](=O)[O-]` was tested, and the AC50 [1] was inconclusive: 50 µM and the outcome [3] was “inactive”.

`CCCN(CCC)c1c([N+](=O)[O-])cc(S(N)(=O)=O)cc1[N+](=O)[O-]` was tested, and the AC50 [1] was inconclusive: 53 µM, the AC50 [2] was inconclusive: 1.77 µM and the outcome [5] was “inactive”. For the same compound, the AC50 [6] was active: 6.68 µM and inconclusive: 48.4 nM and the AC50 [7] was active: 7.1 nM.

With `C[C@]12CC[C@H](O)CC1=CC[C@@H]1[C@@H]2CC[C@]2(C)C(=O)CC[C@@H]12` the AC50 [1] was active: 3.91 µM.

For `Nc1ccc(N=Nc2ccccc2)cc1`, the AC50 [1] was active: 34.6 µM and the AC50 [8] was inconclusive: 0.373 µM.

In the case of `CC1(C)CN=C(NN=C(/C=C/c2ccc(C(F)(F)F)cc2)/C=C/c2ccc(C(F)(F)F)cc2)NC1`, the AC50 [2] is reported as active: 25 µM, the outcome [8] is reported as “inactive” and the AC50 [6] is reported as active: 7.48 µM. The AC50 [9] was inconclusive: 23.8 µM and the outcome [7] was “inactive”.

For `CC(C)(C)C(O)/C(=C\c1ccc(Cl)cc1Cl)n1cncn1` (stereo not given), the AC50 [2] was inconclusive: 25 µM and the AC50 [3] was active: 0.667 µM.

With `CN/C(=N\[N+](=O)[O-])NCc1cnc(Cl)s1` the AC50 [1] was inconclusive: 50 µM and the AC50 [7] was inconclusive: 25000 nM.

In the case of `O=[N+]([O-])c1c(Cl)c(Cl)c(Cl)c(Cl)c1Cl`, the outcome [2] is reported as “inactive”, the AC50 [3] is reported as inconclusive: 6.44 µM and the outcome [9] is reported as “inactive”.

`CCCN(CCC)N=O` was tested, and the outcome [2] was “inactive”, the outcome [8] was “inactive” and the AC50 [5] was inconclusive: 25 µM.

For `COC(=O)c1ccccc1C(=O)OC`, the outcome [1] was “inactive” and the AC50 [4] was inconclusive: 8.67 µM.

With `c1nc[nH]n1` the outcome [1] was “inactive” and the AC50 [7] was inconclusive: 25000 nM.

For `CC[C@H](C)[C@H]1O[C@]2(C=C[C@@H]1C)C[C@@H]1C[C@@H](C/C=C(\C)[C@@H](O[C@H]3C[C@H](OC)[C@@H](O[C@H]4C[C@H](OC)[C@@H](O)[C@H](C)O4)[C@H](C)O3)[C@@H](C)/C=C/C=C3\CO[C@@H]4[C@H](O)C(C)=C[C@@H](C(=O)O1)[C@]34O)O2` (tested in a mixture with another compound), the AC50 [2] was active: 12.2 µM.

For `Clc1ccc(C(c2ccccc2Cl)C(Cl)(Cl)Cl)cc1` (stereo not given), the AC50 [1] was active: 2.09 µM and active: 3.59 µM and active: 1.83 µM and the AC50 [6] was inconclusive: 673 nM and inconclusive: 17.6 µM.

In the case of `O=C(CCl)Nc1ccccc1`, the AC50 [1] is reported as inconclusive: 50 µM and the outcome [7] is reported as “inactive”.

With `CC(C)Oc1cccc(NC(=O)c2ccccc2C(F)(F)F)c1` the AC50 [1] was inconclusive: 50 µM, the outcome [3] was “inactive” and the AC50 [4] was inconclusive: 13.6 µM. For the same compound, the AC50 [7] was inconclusive: 25000 nM.

With `CCOC(=O)C(C)OC(=O)c1cc(Oc2ccc(C(F)(F)F)cc2Cl)ccc1[N+](=O)[O-]` (stereo not given) the outcome [2] was “inactive”, the outcome [8] was “inactive” and the outcome [4] was “inactive”. The outcome [10] was “inactive”.

In the case of `CCOc1nc(NC)nc(NC(=O)NS(=O)(=O)c2ccccc2C(=O)OC)n1`, the AC50 [2] is reported as inconclusive: 4.96 µM, the outcome [3] is reported as “inactive” and the outcome [4] is reported as “inactive”. The outcome [9] was “inactive”.

`CCCCCCCCCCCCN(C)C` was tested, and the AC50 [1] was active: 76.5 µM and the outcome [11] was “inactive”.

With `CSc1nnc(C(C)(C)C)c(=O)n1N` the outcome [2] was “inactive”, the AC50 [3] was inconclusive: 0.152 µM and the AC50 [4] was inconclusive: 0.163 µM. The AC50 [12] was inconclusive: 7.19 µM and the AC50 [13] was inconclusive: 0.27 µM.

With `CCOP(=S)(Oc1ccc([N+](=O)[O-])cc1)c1ccccc1` (stereo not given) the AC50 [1] was active: 26.4 µM and the AC50 [7] was inconclusive: 243 nM.

`CNC(=O)ON=CC(C)(C)SC` was tested, and the AC50 [2] was inconclusive: 25 µM, the outcome [3] was “inactive” and the AC50 [4] was inconclusive: 1.05 µM. For the same compound, the AC50 [7] was inconclusive: 131 nM.

With `N#Cc1cc(Br)c(O)c(Br)c1` the AC50 [2] was inconclusive: 0.898 µM and the outcome [8] was “inactive”.

In the case of `Nc1c(Cl)cc([N+](=O)[O-])cc1Cl`, the outcome [2] is reported as “inactive”, the AC50 [3] is reported as inconclusive: 0.151 µM and the AC50 [9] is reported as inconclusive: 25 µM. For the same compound, the outcome [13] was “inactive”.

For `CCCCCCCCCc1ccc(O)cc1`, the AC50 [1] was active: 12.7 µM and active: 12.4 µM, the outcome [5] was “inactive” and the AC50 [6] was inconclusive: 25 µM and inconclusive: 376 nM. For the same compound, the AC50 [7] was inconclusive: 4.96 µM and inconclusive: 46 µM.

With `c1cc[c]([Hg][c]2ccccc2)cc1` the AC50 [1] was inconclusive: 50 µM and the AC50 [6] was inconclusive: 0.012 µM.

In the case of `COc1ccc(C(=CC(=O)N2CCOCC2)c2ccc(Cl)cc2)cc1OC`, the outcome [2] is reported as “inactive”, the AC50 [3] is reported as inconclusive: 42.8 µM and the AC50 [9] is reported as inconclusive: 6.96 µM and inconclusive: 2.73 µM. The AC50 [14] was active: 9.48 µM and the outcome [10] was “inactive”.

With `O=C(Nc1ccccc1)c1ccccc1I` the AC50 [1] was inconclusive: 50 µM, the AC50 [15] was inconclusive: 0.18 µM and the AC50 [11] was active: 11.2 µM.

`CC(C)(C)C(O)C(Oc1ccc(Cl)cc1)n1cncn1` (stereo not given) was tested, and the AC50 [2] was inconclusive: 0.0242 µM, the outcome [8] was “inactive” and the AC50 [3] was inconclusive: 0.0374 µM. The AC50 [5] was inconclusive: 25 µM and the outcome [4] was “inactive”.
